Earlier results as cited in EP2578211A1, “6-DECAPRENYL-2,3-DIMETHOXY-5-METHYL-1,4-BENZOQUINONE-BASED COMPOSITION AND METHOD FOR THE PRODUCTION THEREOF” (Obschestvo S Ogranichennoi Otvetstvennostju "Accent", priority 2010, dated 2011).

Conditions: Temporal pharmacopoeial monograph 42 - 1978 - 90

Question: For `COC1=C(OC)C(=O)C(C/C=C(\C)CC/C=C(\C)CC/C=C(\C)CC/C=C(\C)CC/C=C(\C)CC/C=C(\C)CC/C=C(\C)CC/C=C(\C)CC/C=C(\C)CCC=C(C)C)=C(C)C1=O` [6-decaprenyl-2,3-dimethoxy-5-methyl-1,4-benzoquinone], which solubility in water is on record?
Answer: water-insoluble
